Experimental data from publication PMC5996148.
Some of the results follow. For some of these results: The exact form of the protein is not confirmed.

Key:
Test in all cases: protein microarray (ProtoArray v5.0), streptavidin-Alexa Fluor 647
Conditions in all cases: 3'-biotin; 20 mM Tris (pH 7.5), 5 mM MgCl2, 100 mM KCl, 0.1% Tween-20, A/T-rich and random oligonucleotide blockers; temperature not stated; high values mean tight binding
BBS2 (human) = tested on: BBS2 (human)
BBS7 (human) = tested on: BBS7 (human)
BCAR3 (human) = tested on: BCAR3 (human)
BCAS2 (human) = tested on: BCAS2 (human)
BCKDK = BCKDK (UniProt O14874)
BCL10 = target: T1, BCL10 (UniProt O95999)
T1 sequence: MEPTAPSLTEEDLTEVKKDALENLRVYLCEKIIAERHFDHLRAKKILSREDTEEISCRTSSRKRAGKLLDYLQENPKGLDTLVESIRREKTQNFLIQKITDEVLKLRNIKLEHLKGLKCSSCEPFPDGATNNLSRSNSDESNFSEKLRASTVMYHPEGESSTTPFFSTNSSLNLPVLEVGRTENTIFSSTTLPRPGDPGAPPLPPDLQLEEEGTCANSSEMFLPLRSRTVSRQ

BCL2A1 (human) = tested on: BCL2A1 (human)
BCL2L11 (human) = tested on: BCL2L11 (human)
BCL2L13 (human) = tested on: BCL2L13 (human)
BEGAIN (human) = tested on: BEGAIN (human)

“GGGAGGCTGAGGCAGG [G4-1 biotinylated (PQS2)]” was tested. Which binding signal (BBS2 (human)) did it give?
The binding signal was -0.33 z-score.

And the binding signal (BBS7 (human))?
The binding signal was -0.326 z-score.

And the binding signal (BCAR3 (human))?
The binding signal was -0.343 z-score.

And the binding signal (BCAS2 (human))?
Its binding signal is -0.294 z-score.

And the binding signal (BCKDK)?
Its binding signal is -0.303 z-score.

And the binding signal (BCL10)?
Its binding signal is -0.323 z-score.

And the binding signal (BCL2A1 (human))?
The binding signal was -0.329 z-score.

And the binding signal (BCL2L11 (human))?
The binding signal was -0.375 z-score.

And the binding signal (BCL2L13 (human))?
Its binding signal is -0.357 z-score.

What about the binding signal (BEGAIN (human)) of the same sequence?
The binding signal was -0.312 z-score.
